For 60 sequences, binding signal results are on record in article PMC7862700.

Experiment in all cases: DAPPL (digital affinity profiling via proximity ligation, sequencing)
Holding throughout (settings): 10 mM Tris-HCl pH 7.5, 50 mM NaCl, 1 mM DTT, 4% glycerol, room temperature, 30 min; GST-TFs on glutathione beads, 16-mer random dsDNA library, 0.1% …; high values mean tight binding; double strand, one strand shown; scale: fold enrichment (6-mer frequency, TF over GST control)

One test addresses T1, GABPA (UniProt Q06546).
T1 sequence: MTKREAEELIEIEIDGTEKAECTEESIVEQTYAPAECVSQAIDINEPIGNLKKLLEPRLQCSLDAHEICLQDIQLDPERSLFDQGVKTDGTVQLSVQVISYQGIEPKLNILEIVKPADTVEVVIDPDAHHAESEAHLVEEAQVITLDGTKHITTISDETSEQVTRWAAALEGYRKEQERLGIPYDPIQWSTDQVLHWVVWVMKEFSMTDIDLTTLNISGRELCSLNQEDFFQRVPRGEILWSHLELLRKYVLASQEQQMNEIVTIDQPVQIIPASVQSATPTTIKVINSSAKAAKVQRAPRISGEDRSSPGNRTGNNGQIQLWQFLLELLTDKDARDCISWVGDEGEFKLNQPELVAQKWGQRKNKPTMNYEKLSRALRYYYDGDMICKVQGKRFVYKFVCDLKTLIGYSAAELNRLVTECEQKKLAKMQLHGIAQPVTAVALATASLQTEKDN

For another test, the target named is T2, ETS1 (UniProt P14921).
T2 sequence: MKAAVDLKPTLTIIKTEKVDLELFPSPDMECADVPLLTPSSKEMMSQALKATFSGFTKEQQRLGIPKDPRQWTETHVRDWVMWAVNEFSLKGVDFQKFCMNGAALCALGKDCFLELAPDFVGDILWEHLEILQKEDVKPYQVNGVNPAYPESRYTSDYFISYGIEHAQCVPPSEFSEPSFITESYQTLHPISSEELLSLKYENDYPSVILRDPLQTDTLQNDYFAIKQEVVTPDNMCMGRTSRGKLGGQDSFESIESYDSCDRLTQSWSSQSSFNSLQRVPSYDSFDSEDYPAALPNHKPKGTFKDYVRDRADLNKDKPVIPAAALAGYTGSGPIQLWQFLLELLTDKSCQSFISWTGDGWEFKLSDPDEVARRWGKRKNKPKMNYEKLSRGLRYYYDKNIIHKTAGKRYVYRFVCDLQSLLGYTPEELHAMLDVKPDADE

Another test deals with T3, SPDEF (UniProt O95238).
T3 sequence: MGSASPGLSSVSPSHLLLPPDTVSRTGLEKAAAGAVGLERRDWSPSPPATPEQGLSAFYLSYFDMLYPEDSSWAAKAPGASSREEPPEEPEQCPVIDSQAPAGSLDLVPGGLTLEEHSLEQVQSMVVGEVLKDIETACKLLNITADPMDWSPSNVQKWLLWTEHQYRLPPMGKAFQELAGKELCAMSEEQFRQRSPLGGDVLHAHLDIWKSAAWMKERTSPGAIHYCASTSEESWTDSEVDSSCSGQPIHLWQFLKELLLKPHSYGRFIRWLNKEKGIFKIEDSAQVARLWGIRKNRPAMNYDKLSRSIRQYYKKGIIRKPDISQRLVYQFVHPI

This is a selection; strong and weak results do not stand in their true shares. For part of these data: At the low end of the ranking the order means little. The list shows a part of the results. For part of these data: Construct or isoform of the protein are uncertain.

As for GTGGGG, the binding signal with GABPA amounted to 0.649; with ETS1 it was 0.567; with SPDEF, 0.524.

Take AGACCC: the binding signal with GABPA came to 0.683; with ETS1, 0.764; with SPDEF, 0.716.

Regarding GTCGTG, the binding signal with GABPA was found to be 0.365; in the test with ETS1, 0.438; with SPDEF it was 0.369.

Turning to TGAGCA, the binding signal with GABPA is 0.937; with ETS1, 0.852; with SPDEF, 0.839.

For GCCGGG, the binding signal came to 0.378 with GABPA, 0.411 in the test with ETS1 and 0.405 with SPDEF.

For ACGCAA, the values for the binding signal with GABPA, in the test with ETS1 and in the test with SPDEF were 0.914, 0.94 and 0.863, respectively.

Regarding GTGTGT, the binding signal with GABPA stood at 0.522; with ETS1, 0.501; in the test with SPDEF, 0.535.

Regarding AAGCCA, the figures for the binding signal with GABPA, in the test with ETS1 and with SPDEF were 0.844, 0.911 and 0.803, respectively.

For GAGGGG, the binding signal in the test with GABPA was determined as 0.518; in the test with ETS1, 0.486; in the test with SPDEF, 0.476.

With AGACAC, the binding signal with GABPA came to 0.818; with ETS1, 0.772; in the test with SPDEF it was 0.76.

On to CGGGGG, for which the figures for the binding signal with GABPA, with ETS1 and in the test with SPDEF were 0.47, 0.492 and 0.444, respectively.

In the case of GGTGCT, the binding signal with GABPA was 0.935; in the test with ETS1, 0.895; in the test with SPDEF, 0.893.

Take GTAGGA: the binding signal with GABPA amounted to 0.576; with ETS1, 0.587; with SPDEF, 0.567.

As for TGCCGT, the binding signal with GABPA was determined as 0.773; in the test with ETS1, 0.827; with SPDEF, 0.947.

In the case of GCTGTC, the binding signal worked out at 0.934 with GABPA, 1.02 with ETS1 and 0.879 with SPDEF.

CAGAGT: the values for the binding signal with GABPA, with ETS1 and in the test with SPDEF were 0.662, 0.647 and 0.575, respectively.

On to GACGGT, for which the binding signal with GABPA was 0.467; with ETS1, 0.408; with SPDEF it was 0.47.

Turning to GTGACA, the binding signal with GABPA worked out at 0.721; with ETS1, 0.736; with SPDEF it was 0.767.

In the case of AAGAGC, the binding signal in the test with GABPA was 0.881; in the test with ETS1 it was 0.923; in the test with SPDEF, 0.772.

Regarding GTGATT, the binding signal with GABPA was determined as 0.682; with ETS1, 0.709; with SPDEF, 0.734.

Take TCGTAA: the binding signal in the test with GABPA turned out to be 0.922; in the test with ETS1 it was 0.933; with SPDEF, 0.853.

TAGAGG: the binding signal is 0.856 with GABPA, 0.866 in the test with ETS1 and 0.834 in the test with SPDEF.

Take GGCGCA: the binding signal is 0.605 with GABPA, 0.59 with ETS1 and 0.592 in the test with SPDEF.

On to TAGGTG, for which the values for the binding signal with GABPA, with ETS1 and with SPDEF were 0.883, 0.91 and 0.797, respectively.

Consider TCGTGG, for which the binding signal in the test with GABPA turned out to be 0.745; in the test with ETS1 it was 0.814; with SPDEF, 0.636.

As for TTGTCG, the results for the binding signal with GABPA, with ETS1 and with SPDEF were 0.812, 0.887 and 0.907, respectively.

As for GACGCG, the figures for the binding signal in the test with GABPA, in the test with ETS1 and with SPDEF were 0.607, 0.685 and 0.637, respectively.

Consider AGGCCG, for which the binding signal is 0.442 in the test with GABPA, 0.475 with ETS1 and 0.45 in the test with SPDEF.

On to CAGACC, for which the results for the binding signal in the test with GABPA, in the test with ETS1 and with SPDEF were 0.828, 0.767 and 0.817, respectively.

For CCCAGC, the binding signal with GABPA turned out to be 0.741; with ETS1 it was 0.886; in the test with SPDEF, 0.797.

As for TCGTGA, the values for the binding signal with GABPA, in the test with ETS1 and in the test with SPDEF were 0.335, 0.324 and 0.313, respectively.

In the case of GGCCGG, the values for the binding signal with GABPA, with ETS1 and with SPDEF were 0.497, 0.569 and 0.604, respectively.

With ACGCAT, the values for the binding signal with GABPA, with ETS1 and with SPDEF were 0.833, 0.78 and 0.886, respectively.

Turning to TAGACG, the binding signal is 0.796 with GABPA, 0.727 with ETS1 and 0.764 with SPDEF.

In the case of GTAAGA, the binding signal was 0.785 with GABPA, 0.847 with ETS1 and 0.75 with SPDEF.

As for AGTGTG, the binding signal with GABPA worked out at 0.739; with ETS1, 0.65; with SPDEF, 0.65.

As to TAGCCA, the binding signal in the test with GABPA was 0.9; with ETS1 it was 0.832; in the test with SPDEF, 0.891.

For CACGAG, the results for the binding signal with GABPA, with ETS1 and with SPDEF were 0.852, 0.844 and 0.819, respectively.

As to GGCCCA, the binding signal with GABPA came out at 0.89; with ETS1 it was 0.888; in the test with SPDEF, 0.791.

AAAGAG: the binding signal was 0.988 with GABPA, 0.941 in the test with ETS1 and 0.866 with SPDEF.

GAGCGG: the binding signal is 0.5 with GABPA, 0.499 in the test with ETS1 and 0.483 in the test with SPDEF.

Take GGAACG: the binding signal with GABPA came to 0.608; with ETS1, 0.611; with SPDEF it was 0.556.

Regarding GTGAAC, the binding signal turned out to be 0.842 with GABPA, 0.82 in the test with ETS1 and 0.805 with SPDEF.

For the sequence GCGCTA, the results for the binding signal with GABPA, in the test with ETS1 and in the test with SPDEF were 0.946, 1.01 and 0.915, respectively.

As for CGGTGG, the binding signal with GABPA stood at 0.661; in the test with ETS1 it was 0.595; with SPDEF it was 0.554.

With AGGTCA, the binding signal with GABPA came out at 0.795; in the test with ETS1 it was 0.718; in the test with SPDEF it was 0.738.

With CAAGGC, the binding signal amounted to 0.859 in the test with GABPA, 0.874 with ETS1 and 0.841 with SPDEF.

As for GAACGA, the binding signal is 0.72 in the test with GABPA, 0.76 with ETS1 and 0.679 in the test with SPDEF.

As for CATGGA, the binding signal is 0.942 with GABPA, 0.824 with ETS1 and 0.825 with SPDEF.

Regarding GGGATA, the binding signal was 0.767 with GABPA, 0.724 with ETS1 and 0.859 with SPDEF.

AGTAGG: the figures for the binding signal in the test with GABPA, in the test with ETS1 and in the test with SPDEF were 0.603, 0.646 and 0.564, respectively.

For GGGGTA, the binding signal in the test with GABPA was 0.781; in the test with ETS1 it was 0.747; with SPDEF, 0.716.

For the sequence AGTTGT, the binding signal worked out at 0.831 in the test with GABPA, 0.831 with ETS1 and 0.724 in the test with SPDEF.

In the case of AGTTAG, the figures for the binding signal with GABPA, in the test with ETS1 and in the test with SPDEF were 0.8, 0.862 and 0.777, respectively.

With GTGGCG, the binding signal amounted to 0.847 in the test with GABPA, 0.828 with ETS1 and 0.744 with SPDEF.

GGGACC: the figures for the binding signal with GABPA, with ETS1 and with SPDEF were 0.705, 0.652 and 0.716, respectively.

Consider ACCCAG, for which the binding signal was 0.621 in the test with GABPA, 0.717 with ETS1 and 0.663 with SPDEF.

With ACAGAC, the binding signal with GABPA turned out to be 0.842; in the test with ETS1, 0.809; in the test with SPDEF, 0.803.

Consider GGGTCG, for which the binding signal in the test with GABPA turned out to be 0.674; with ETS1, 0.544; in the test with SPDEF, 0.597.

Consider CCCGGG, for which the values for the binding signal with GABPA, in the test with ETS1 and with SPDEF were 0.836, 0.752 and 0.899, respectively.
